Patent US20130109635A1, “Humanin Decreases Liver Fat and Visceral Fat Accumulation” (priority 2011, published 2013)

How the values were obtained:
[1] = test system: triglyceride secretion from liver; test: Acute ICV infusion of HNG with tyloxapol injection, plasma TG levels, rats; format: in vivo, Sprague-Dawley rats; conditions: ICV HNG 1 μg
Description: (§1) The effect of humanin analog, HNG, on hepatic lipid fluxes was investigated. In the acute study, HNG was infused into third ventricle (ICV) of awake, unstressed and chronically catheterized Sprague-Dawley rats and C57BLK6 mice and studied plasma triglyceride (TG) levels following an injection of Tyloxapol (Triton WR1339, Sigma-Aldrich Corp, St. Louis, Mo.), an inhibitor of TG clearance. Groups of animals were also challenged with high fat diet (HFD) of 60% fat for one month and were treated with either daily injections of saline or of HNG (2 mg/kg). Body weight and Food intake were monitored twice a week. At the end of one month, liver fat was assessed both by histology and estimation of tissue triglycerides and plasma was collected. Total amount of visceral fat (VF) was determined and the specific depots were meticulously dissected and weighed. Tissue samples were snap-frozen for subsequent analysis.
Acute effects of Humanin on liver fluxes: The effect of HN was studied in acute and chronic treatment models. […]
With infusion of tyloxapol, there was a steady increase in plasma triglyceride levels in both groups from inhibition of TG clearance. […] The rate of TG secretion was calculated in the animals based on plasma triglyceride levels at 0 and 120 min time points using the following equation: secretion rate of TG/hr mg/min=(TG at 120 min−TG at 0 min)/number of hours.

[2] = High fat diet (60% fat) for one month with daily injections of HNG: food intake, body weight, visceral fat, liver fat, serum lipids; format: in vivo, mice; conditions: HNG 2 mg/kg daily
Description: as §1
Chronic effects of Humanin on liver lipid content: Groups of animals were challenged with high fat diet (HFD-60% fat) for one month and were treated with either daily injections of saline or HNG (2 mg/kg). At the end of one month, liver fat were assessed both by histology and estimation of tissue triglycerides.

[3] = HFD, end of 4 weeks, data not shown

## MAPRGFSCLLLLTGEIDLPVKRRA (ANALOG OF HUMAN HUMANIN PEPTIDE) [HNG]
[1]
  Glucose (180 min): 147 ± 8.09 mg/dL
[2]; HFD for 4 weeks, intraperitoneal
  food intake vs control: no difference
[2]; [3]
  Serum TG vs control: tended to be higher
  free fatty acids vs control: not significantly different
